Experimental data taken from patent publication US10175256B2, “Compositions and methods utilizing lysophosphatidylcholine scaffolds” (National University Of Singapore, priority 2013, dated 2019).

Assay: Lipidomic analysis of brain, liver and heart phospholipids of WT and Mfsd2a KO mice (Table 2)
Assay type: in vivo
Details: MS, normalized to internal standard; for Amount of lipid species, brain-KO1 / Amount of lipid species, liver-KO1: Mfsd2a KO mouse 1; for Amount of lipid species, brain-KO2 / Amount of lipid species, liver-KO2: Mfsd2a KO mouse 2; for Amount of lipid species, brain-KO3 / Amount of lipid species, liver-KO3: Mfsd2a KO mouse 3; for Amount of lipid species, brain-KO4 / Amount of lipid species, liver-KO4: Mfsd2a KO mouse 4; for Amount of lipid species, brain-WT1 / Amount of lipid species, liver-WT1: wild-type mouse 1; for Amount of lipid species, brain-WT2 / Amount of lipid species, liver-WT2: wild-type mouse 2; for Amount of lipid species, brain-WT3 / Amount of lipid species, liver-WT3: wild-type mouse 3; for Amount of lipid species, brain-WT4 / Amount of lipid species, liver-WT4: wild-type mouse 4; for Amount of lipid species, brain-WT5 / Amount of lipid species, liver-WT5: wild-type mouse 5

SMILES	Amount of lipid species, brain-KO1	Amount of lipid species, brain-KO2	Amount of lipid species, brain-KO3	Amount of lipid species, brain-KO4	Amount of lipid species, brain-WT1	Amount of lipid species, brain-WT2	Amount of lipid species, brain-WT3	Amount of lipid species, brain-WT4	Amount of lipid species, brain-WT5	Amount of lipid species, liver-KO1	Amount of lipid species, liver-KO2	Amount of lipid species, liver-KO3	Amount of lipid species, liver-KO4	Amount of lipid species, liver-WT1	Amount of lipid species, liver-WT2	Amount of lipid species, liver-WT3	Amount of lipid species, liver-WT4	Amount of lipid species, liver-WT5
CCCCCCCCCCCCCCCC(=O)OC[C@@H](O)COP(=O)(O)OC1[C@H](O)[C@H](O)C(O)[C@H](O)[C@H]1O (stereo partly drawn) [LPI16:0]	0.002979 mol percent in total phospholipid analysed	0.00251 mol percent in total phospholipid analysed	0.002802 mol percent in total phospholipid analysed	0.003238 mol percent in total phospholipid analysed	0.002486 mol percent in total phospholipid analysed	0.003248 mol percent in total phospholipid analysed	0.002848 mol percent in total phospholipid analysed	0.003136 mol percent in total phospholipid analysed	0.003236 mol percent in total phospholipid analysed	–	–	–	–	–	–	–	–	–
CCCCCCCCCCCCCCCCCC(=O)OC[C@@H](O)COP(=O)(O)O[C@@H]1[C@H](O)[C@H](O)[C@@H](O)[C@H](O)[C@H]1O [LPI18:0]	0.0005793 mol percent in total phospholipid analysed	0.0005906 mol percent in total phospholipid analysed	0.0008329 mol percent in total phospholipid analysed	0.0008095 mol percent in total phospholipid analysed	0.001577 mol percent in total phospholipid analysed	0.001227 mol percent in total phospholipid analysed	0.0004241 mol percent in total phospholipid analysed	0.001021 mol percent in total phospholipid analysed	0.0008441 mol percent in total phospholipid analysed	–	–	–	–	–	–	–	–	–
CCCCCCCCCCCCCC/C=C\OC[C@@H](O)COP(=O)(O)OCCN [Lyso PE16:0p]	2.286 mol percent in total phospholipid analysed	2.412 mol percent in total phospholipid analysed	2.319 mol percent in total phospholipid analysed	2.815 mol percent in total phospholipid analysed	2.66 mol percent in total phospholipid analysed	2.568 mol percent in total phospholipid analysed	2.777 mol percent in total phospholipid analysed	2.275 mol percent in total phospholipid analysed	2.048 mol percent in total phospholipid analysed	–	–	–	–	–	–	–	–	–
CCCCCCCCCCCCCCCCCC/C=C\OC[C@@H](O)COP(=O)(O)OCCN [Lyso PE20:0p]	0.03687 mol percent in total phospholipid analysed	0.04334 mol percent in total phospholipid analysed	0.071 mol percent in total phospholipid analysed	0.08199 mol percent in total phospholipid analysed	0.04135 mol percent in total phospholipid analysed	0.04891 mol percent in total phospholipid analysed	0.04144 mol percent in total phospholipid analysed	0.0529 mol percent in total phospholipid analysed	0.05499 mol percent in total phospholipid analysed	–	–	–	–	–	–	–	–	–
CCCCCCCCCCCCCCCC(=O)OC[C@@H](O)COP(=O)([O-])OCC[N+](C)(C)C [LysoPC16:0]	0.07419 mol percent in total phospholipid analysed	0.06621 mol percent in total phospholipid analysed	0.07611 mol percent in total phospholipid analysed	0.06264 mol percent in total phospholipid analysed	0.06588 mol percent in total phospholipid analysed	0.05812 mol percent in total phospholipid analysed	0.05493 mol percent in total phospholipid analysed	0.05681 mol percent in total phospholipid analysed	0.05329 mol percent in total phospholipid analysed	0.1654 mol percent in total phospholipid analysed	0.1701 mol percent in total phospholipid analysed	0.1803 mol percent in total phospholipid analysed	0.1794 mol percent in total phospholipid analysed	0.1964 mol percent in total phospholipid analysed	0.1702 mol percent in total phospholipid analysed	0.13 mol percent in total phospholipid analysed	0.1488 mol percent in total phospholipid analysed	0.1663 mol percent in total phospholipid analysed
CCCCCCCCCCCCCCCCOC[C@@H](O)COP(=O)([O-])OCC[N+](C)(C)C [LysoPC16:0e]	0.004985 mol percent in total phospholipid analysed	0.004933 mol percent in total phospholipid analysed	0.004329 mol percent in total phospholipid analysed	0.004248 mol percent in total phospholipid analysed	0.002959 mol percent in total phospholipid analysed	0.003426 mol percent in total phospholipid analysed	0.003897 mol percent in total phospholipid analysed	0.00333 mol percent in total phospholipid analysed	0.003527 mol percent in total phospholipid analysed	0.007912 mol percent in total phospholipid analysed	0.007046 mol percent in total phospholipid analysed	0.007445 mol percent in total phospholipid analysed	0.006266 mol percent in total phospholipid analysed	0.005645 mol percent in total phospholipid analysed	0.00646 mol percent in total phospholipid analysed	0.005887 mol percent in total phospholipid analysed	0.005682 mol percent in total phospholipid analysed	0.005255 mol percent in total phospholipid analysed
CCCCCCCCCCCCCCCCCC(=O)OC[C@@H](O)COP(=O)([O-])OCC[N+](C)(C)C [LysoPC18:0]	0.04573 mol percent in total phospholipid analysed	0.04052 mol percent in total phospholipid analysed	0.05017 mol percent in total phospholipid analysed	0.0366 mol percent in total phospholipid analysed	0.03098 mol percent in total phospholipid analysed	0.03106 mol percent in total phospholipid analysed	0.02968 mol percent in total phospholipid analysed	0.03034 mol percent in total phospholipid analysed	0.02994 mol percent in total phospholipid analysed	0.2396 mol percent in total phospholipid analysed	0.2338 mol percent in total phospholipid analysed	0.2765 mol percent in total phospholipid analysed	0.2041 mol percent in total phospholipid analysed	0.1837 mol percent in total phospholipid analysed	0.1637 mol percent in total phospholipid analysed	0.1421 mol percent in total phospholipid analysed	0.164 mol percent in total phospholipid analysed	0.1584 mol percent in total phospholipid analysed
